Laboratory results published in paper PMC10163288.
The list shows a part of the results.

B1: il10ra_site1_normal_mot_HHH_b2_07006_000000108_0001_1_19_H_._HHH_b1_03230_0001_0000500068_0000001_0 (protein)
chain: SSSSDEEYELLRRAIEELLELLREGNPEEAERLFREVERELEEAGNFVAVFSLRHAFRRTSSSSS
B2: il10ra_site1_normal_mot_493e05f641973f3adf044177f88ae147_0001_af2_000000048_0001_1_12_H_._HHH_b1_05964_af2_0001_0000500020_0000001_0_af2pred_0001 (protein)
chain: SSSSSSQEEALEHAVEVLVRAFKLSEEQKEELEELARELLERGYDPEEVLKILVERAKKLSSSSS
B3: il10ra_site1_normal_mot_HHH_b1_02062_000000185_0001_1_20_H_._HHH_b1_06352_0001_0000500034_0000002_0 (protein)
chain: SSSSDLRREAYELSRKIAELLSEGNPEEAQELLEELRKIIEELGNELLEFILRHLEQDLNSSSSS
B4: il10ra_site1_normal_mot_HHH_b2_00475_000000107_0001_44_57_H_._HHH_b2_06725_0001_0000100004_0000002_0 (protein)
chain: SSSSDEEEERYLEIAKHFIEAASKKNPELARIIARVLLKWLEERGDEELAEELRELLEELSSSSS
B5: il10ra_site1_normal_mot_HHH_b1_01874_000000035_0001_1_20_H_._HHH_b2_01313_af2_0001_0000100002_0000001_0_af2pred_0001 (protein)
chain: SSSSDEEAFKLLRRALEARRRGNLEEAEELAEKAREIAEENNNEIFLFAIERLERDLRLLGSSSS
B6: il10ra_site1_sap_20_mot_HHH_b1_01233_000000085_0001_1_18_H_._HHH_b2_02546_0001_0000200011_0000001_1_0001 (protein)
chain: SSSSSDEEFIRLLQEAIRLAFQNRDEELLRALWRLAKEWGKEGDEKYAEELRELIEEVGSSSSSS
B7: il10ra_site1_normal_mot_b26a303360aa2756ef5b79665ce52f45_0001_000000179_0001_1_11_H_._HHH_b2_08246_0001_0000200038_0000002_0 (protein)
chain: SSSSSEESQELYKLSREAAELLAEGDEEEARRLLEEALELAEEKNNFVFLFSLEHLLRAQSSSSS
B8: il10ra_site1_normal_mot_HHH_b2_00643_000000120_0001_23_40_H_._HHH_b2_03794_0001_0000300008_0000001_0 (protein)
chain: SSSSDAIQEAWEAVKRAAELFQRGDPEKAEELLEEAEERLEELGNEVAVLQVRHLLRAIEQSSSS
B9: il10ra_site1_sap_19_mot_HHH_b2_05410_000000077_0001_20_37_H_._HHH_b1_01497_0001_0000400057_0000002_0_0001 (protein)
chain: SSSSSREEVEELLEELKELLEEGDRERFLRLAQEIIHAAIQVSDPELLRALWELVREWAENSSSS
B10: il10ra_site1_sap_25_mot_HHH_b2_08186_000000021_0001_43_56_H_._HHH_b2_08341_0002_0000500037_0000003_0_0001 (protein)
chain: SSSSSSDEEEVEELLERAEHIEDRQERAELLLEALRIAFRAKNPELIQAVWRAIREIVGSSSSSS
B11: il10ra_site1_normal_mot_HHH_b1_05056_000000217_0001_1_20_H_._HHH_b2_04080_0001_0000400030_0000001_0 (protein)
chain: SSSSSSSSEEEVEKILEEAEEVDDQREANEILLRALRLAFELQDPEALRLVWKVVKELSSSSSSS
B12: il10ra_site1_normal_mot_HHH_b1_04771_000000013_0001_40_56_H_._HHH_b2_03045_0001_0000400026_0000001_0 (protein)
chain: SSSSSDDELLELSLEAFRLALRGNPEEAEKVLEQAEKLAEELNNERALRVVRDLLEALGSSSSSS
B13: il10ra_site1_normal_mot_HHH_b2_00837_af2_000000287_0001_40_54_H_._HHH_b1_04782_af2_0001_0000400014_0000001_0 (protein)
chain: SSSSDEEERVEELIEEAEELIEEGDPRRASELLAEAVRHAFRSKDEELLRRVWEIVHKLKSSSSS
B14: il10ra_site1_sap_22_mot_HHH_b1_05326_000000242_0001_1_20_H_._HHH_b1_05575_0001_0000500022_0000001_0_0001 (protein)
chain: SSSSDSEEVFRLLEEAAELLRDGDPEEARKLLEEALELAEELGDRNFAENIRYLLEDVERHSSSS
B15: il10ra_site1_sap_11_mot_HHH_b2_07442_000000239_0001_40_54_H_._HHH_b2_05772_af2_0001_0000100001_0000001_1_0001 (protein)
chain: SSSSDEEYEEVEEVIREAIELYKNGDPEEARELLEELLEKLEELGNWVAVHSVRHLLELLSSSSS
B16: il10ra_site1_sap_24_mot_HHH_b1_01563_af2_000000118_0001_40_54_H_._HHH_b2_01412_0001_0000100003_0000001_0_0001 (protein)
chain: SSSSSEAEELYELLRRINEALSEGDEELVEKLLEEVKKIAEELGNRVFRMQIEFLEEILKSSSSS
B17: il10ra_site1_normal_mot_HHH_b2_03827_000000021_0001_1_19_H_._HHH_b1_03568_0001_0000100001_0000001_0 (protein)
chain: SSSSEEREEAERLLEQIKELLEEGDLEEVWELLKRLAEIAFKLNDEELLEELLRLSHLAARNSSS
B18: il10ra_site1_normal_mot_745ba417a8ead33aea5db1974d5d2f48_0001_1_af2_000000024_0001_16_30_H_._HHH_b1_07698_0001_0000300026_0000001_0 (protein)
chain: SSSSDREVLELIVRASRLILRGNPEEAQEVIEEAERLAEEIGDPRLRLSVRFEKHLLESFESSSS
B19: il10ra_site1_sap_15_mot_HHH_b2_00230_000000227_0001_1_19_H_._HHH_b1_00399_0001_0000100015_0000001_0_0001 (protein)
chain: SSSSSSEVAERSARHFFEAIRQIDDEEYVKLALRFMRADAEWTNDPEIHELVRELEELFSSSSSS
B20: il10ra_site1_normal_mot_HHH_b2_01310_000000089_0001_41_55_H_._HHH_b1_04734_af2_0001_0000300019_0000001_0_af2pred_dldesign_0_af2pred (protein)
chain: SSSSSEKREEVKRILEKVKELIEEGKEEEAVELLRKAVRLATELGDSELLQEIKELAKKLESSSS
B21: il10ra_site1_normal_mot_HHH_b1_05672_af2_000000246_0001_1_19_H_._HHH_b2_02879_af2_0001_0000400017_0000002_0 (protein)
chain: SSSSDEEQRVAELLFRVVRLWYEGNPEEAEEVLKEAERLAKELGDEELERYVEIAELFVRSSSSS
B22: il10ra_site1_sap_22_mot_HHH_b1_08593_000000040_0001_43_57_H_._HHH_b2_00928_0001_0000200013_0000002_0_0001 (protein)
chain: SSSSDEEQEELLELLREIFRLALRGDPEEAEKLLKQVKELAEELGDEVALKMVEDLEAALRSSSS
B23: il10ra_site1_sap_24_mot_HHH_b1_03314_af2_000000278_0001_42_55_H_._HHH_b2_04543_af2_0001_0000400009_0000002_0_0001 (protein)
chain: SSSSSRDAEQTARALLKFARQLRNPEARKIALEEAEELAEKAGDEELLEEIEEELEKVGSSSSSS
B24: il10ra_site1_normal_mot_HHH_b1_04693_000000238_0001_19_36_H_._HHH_b2_01083_0001_0000200019_0000001_1 (protein)
chain: SSSSTQEEYRAVEEAIKEAIELFRRGNPEEAREVLEEAIEFVEKRGNYAAKFALERLLRLLSSSS
B25: il10ra_site1_normal_mot_8756ee2cf497b5429c717dfc0c0bcfd6_0001_000000186_0001_1_13_H_._HHH_b1_04847_0001_0000300024_0000001_0_af2pred_0001 (protein)
chain: SSSSDASKRVVELLREVVELLEQGNEEEAERLLEEAHEIAEENNNLNSLAIVEFILRLLKSSSSS
B26: il10ra_site1_normal_mot_0750aae41c39e4229e2ea8fa354cc919_0001_1_000000144_0001_37_51_H_._HHH_b2_02525_0001_0000100006_0000001_0 (protein)
chain: SSSDEEQQVLELLARAARLAWRGNPEEARELVEEAEELAKELNDPKLEIAVRFWKRLDEERSSSS
B27: il10ra_site1_normal_mot_HHH_b1_05879_000000258_0001_1_19_H_._HHH_b1_03479_0001_0000100008_0000001_0 (protein)
chain: SSSSNTLEWSVRFALEEAERLYELGDPERAEELLRKLVELLREAGNEELVEEVERVLRELNSSSS
B28: il10ra_site1_sap_12_mot_HHH_b1_03277_000000286_0001_44_57_H_._HHH_b2_06600_af2_0002_0000100004_0000002_0_0001_af2pred_dldesign_0_af2pred (protein)
chain: SSSSSEESKAAKKAYEYAKFLKEAGAPELARRTLEAALEIAKQGNDEELIKEIEKLLEEISSSSS
B29: il10ra_site1_normal_mot_HHH_b1_06994_000000193_0001_40_55_H_._HHH_b2_03412_0001_0000200023_0000001_0 (protein)
chain: SSSSDQEEELVKAALRLARQAAEAGDEEAVRFLLLAAKLIAKEGNDEELLEEVEKLEEELSSSSS
B30: il10ra_site1_sap_24_mot_HHH_b2_02736_000000092_0001_22_38_H_._HHH_b1_01843_af2_0001_0000200014_0000001_0_0001 (protein)
chain: SSSSDEELQEELRELIKEVEELLERGDTREAARLAQEILRLIIQLGDEELLRLLWEIIANGSSSS
B31: il10ra_site1_sap_22_mot_HHH_b1_06798_000000292_0001_1_19_H_._HHH_b1_02695_0001_0000700087_0000002_0_0001 (protein)
chain: SSSFIAEFSLEAAKRALEELAKRGDEERFKHLTETVARFLEKLGNEELARELREFAEQLESSSSS
B32: il10ra_site1_normal_mot_HHH_b2_00984_000000042_0001_1_20_H_._HHH_b1_06669_0001_0000400035_0000001_0 (protein)
chain: SSSSELEEEIRKLLEELKELVEEGDVEEAARLAQEIVRFIFELGDEELLKEVWELIRLAVERSSS
B33: il10ra_site1_normal_mot_HHH_b2_03425_000000200_0001_22_39_H_._HHH_b2_05523_af2_0001_0000200005_0000001_0 (protein)
chain: SSSSDERAEEAYELLRELIEAVRNGNEEEFEKIAERIEELIRELGSELFRFVLEHLERDLGSSSS
B34: il10ra_site1_normal_mot_b26a303360aa2756ef5b79665ce52f45_0001_000000179_0001_1_11_H_._HHH_b1_05267_0001_0000100009_0000001_0_af2pred_0001 (protein)
chain: SSSSSRELEEVQELIKEALRLLEEGNPEEARRVLEEAEELAEEAGNPLLEHIVRSLLEQVRSSSS
B35: il10ra_site1_normal_mot_HHH_b1_06816_000000239_0001_1_19_H_._HHH_b1_00941_0003_0000300047_0000002_0 (protein)
chain: SSSSEEEAEELVKEVEEEVRRLLEEGNPDEAFRLVREVIERLVELNNPEAARRLSQVFVETSSSS
B36: il10ra_site1_normal_mot_HHH_b2_03328_af2_000000127_0001_1_19_H_._HHH_b2_01666_0001_0000100010_0000001_0 (protein)
chain: SSSSSSEDHELYRISREILELIAEGDPEEAEELLRELEELAKEVGNFIARFVVRMLKARLSSSSS
B37: il10ra_site1_sap_16_mot_HHH_b1_01754_af2_000000279_0001_1_18_H_._HHH_b2_07461_0001_0000300018_0000002_0_0001 (protein)
chain: SSSSDEEEKEEAEKILEEAKELYEEGNPEEAIRLLAELLRLLFRIDEEILQAVWRLAKEISSSSS

molecular target: il10ra, Q13651; test: yeast display titration

Apparent Kd, inactive:
B1 no binding seen
B2 no binding seen
B3 no binding seen
B4 > 1290 nM
B5 no binding seen
B6 no binding seen
B7 no binding seen
B8 no binding seen
B9 > 1500 nM
B10 no binding seen
B11 no binding seen
B12 no binding seen
B13 no binding seen
B14 no binding seen
B15 no binding seen
B16 no binding seen
B17 no binding seen
B18 no binding seen
B19 no binding seen
B20 no binding seen
B21 no binding seen
B22 no binding seen
B23 no binding seen
B24 no binding seen
B25 no binding seen
B26 no binding seen
B27 no binding seen
B28 no binding seen
B29 no binding seen
B30 no binding seen
B31 no binding seen
B32 no binding seen
B33 no binding seen
B34 no binding seen
B35 no binding seen
B36 no binding seen
B37 no binding seen

Copied from the entries so far for reference:
Apparent Kd, inactive:
B5 no binding seen
B6 no binding seen
B7 no binding seen
B8 no binding seen
B9 > 1500 nM
B10 no binding seen
B11 no binding seen
B12 no binding seen
B13 no binding seen
